Measurements published in paper PMC5663884, “Compositional and expression analyses of the glideosome during the Plasmodium life cycle reveal an additional myosin light chain required for maximum motility” (The Journal of Biological Chemistry, 2017).
Results are given in words; binding and its absence hold for the method and conditions named. Binding seen in cells or lysates may run through a third protein. These calls come from enrichment with a bait or labelling near it, and not all partners need be listed.

By UniProt entry, the sequences of proteins in these tests, tags left out. Where a name states a change or a piece, a line headed by the entry shows the natural chain unless it says otherwise.
UniProt Q8IDR3: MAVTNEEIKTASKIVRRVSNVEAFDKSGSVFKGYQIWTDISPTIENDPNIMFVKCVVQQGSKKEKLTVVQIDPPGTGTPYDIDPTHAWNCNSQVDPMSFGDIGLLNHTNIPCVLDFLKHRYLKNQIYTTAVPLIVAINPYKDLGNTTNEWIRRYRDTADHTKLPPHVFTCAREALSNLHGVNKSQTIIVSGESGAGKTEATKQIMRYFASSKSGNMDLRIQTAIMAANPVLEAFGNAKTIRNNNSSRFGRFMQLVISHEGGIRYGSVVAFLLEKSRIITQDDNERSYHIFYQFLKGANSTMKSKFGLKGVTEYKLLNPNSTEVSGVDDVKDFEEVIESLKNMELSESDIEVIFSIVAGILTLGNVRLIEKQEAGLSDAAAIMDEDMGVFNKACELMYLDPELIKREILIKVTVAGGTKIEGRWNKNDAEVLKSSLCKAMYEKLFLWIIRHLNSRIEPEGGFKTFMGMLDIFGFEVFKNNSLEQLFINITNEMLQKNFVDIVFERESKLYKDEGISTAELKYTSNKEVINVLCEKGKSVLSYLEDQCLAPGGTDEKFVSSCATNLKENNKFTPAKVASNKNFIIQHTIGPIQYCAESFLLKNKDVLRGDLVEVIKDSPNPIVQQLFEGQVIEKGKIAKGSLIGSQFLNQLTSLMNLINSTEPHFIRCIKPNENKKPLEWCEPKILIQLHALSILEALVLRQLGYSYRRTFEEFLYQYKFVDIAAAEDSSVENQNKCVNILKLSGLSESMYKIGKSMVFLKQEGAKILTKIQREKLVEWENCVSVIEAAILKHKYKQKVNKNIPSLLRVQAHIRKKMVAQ
UniProt Q8I5I8: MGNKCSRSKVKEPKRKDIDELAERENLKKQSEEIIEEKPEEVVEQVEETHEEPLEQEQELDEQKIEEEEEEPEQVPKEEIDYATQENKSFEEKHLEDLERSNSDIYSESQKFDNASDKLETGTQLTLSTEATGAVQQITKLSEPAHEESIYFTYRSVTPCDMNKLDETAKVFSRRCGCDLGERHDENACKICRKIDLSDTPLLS
UniProt Q8IFN1: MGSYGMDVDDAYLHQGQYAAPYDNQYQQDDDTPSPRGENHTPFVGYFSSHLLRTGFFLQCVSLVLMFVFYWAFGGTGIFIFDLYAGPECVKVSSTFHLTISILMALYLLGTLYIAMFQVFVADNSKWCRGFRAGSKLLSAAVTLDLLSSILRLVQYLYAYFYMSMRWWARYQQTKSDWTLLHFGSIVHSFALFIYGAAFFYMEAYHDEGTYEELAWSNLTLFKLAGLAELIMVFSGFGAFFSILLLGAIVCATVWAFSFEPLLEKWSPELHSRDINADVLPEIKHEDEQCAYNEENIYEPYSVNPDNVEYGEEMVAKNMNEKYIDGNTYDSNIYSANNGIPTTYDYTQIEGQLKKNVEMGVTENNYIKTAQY
UniProt Q8IM26: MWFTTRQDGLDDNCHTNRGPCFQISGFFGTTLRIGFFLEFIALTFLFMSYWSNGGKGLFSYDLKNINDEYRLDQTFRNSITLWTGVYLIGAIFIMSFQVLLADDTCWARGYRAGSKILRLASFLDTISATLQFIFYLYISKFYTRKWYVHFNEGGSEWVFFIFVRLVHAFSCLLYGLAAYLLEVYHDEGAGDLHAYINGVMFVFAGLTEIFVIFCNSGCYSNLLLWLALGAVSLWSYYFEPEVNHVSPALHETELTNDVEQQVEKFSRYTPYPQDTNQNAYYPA
UniProt Q8IJM4: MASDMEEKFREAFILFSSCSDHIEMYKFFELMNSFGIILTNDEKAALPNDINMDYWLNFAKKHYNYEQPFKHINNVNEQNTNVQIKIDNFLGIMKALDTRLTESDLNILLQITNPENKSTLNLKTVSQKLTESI

Assays:
[1] = molecular target: P. falciparum MyoA-GFP (myosin A tagged at its C terminus with GFP, expressed from the endogenous locus) (P. falciparum) (UniProt Q8IDR3); experiment: affinity purification with mass spectrometry; GFP-Trap precipitate of MyoA-GFP schizont lysate, run 4 mm into a gel, tryptic digestion, LC-MS/MS; control 3D7 with unmodified MyoA; two or more specific peptides
[2] = molecular target: P. falciparum GAP45 tagged internally with GFP (P. falciparum) (UniProt Q8I5I8); experiment: affinity purification with mass spectrometry; GFP-Trap precipitate of GAP45-GFP schizont lysate, SDS-PAGE, SYPRO Ruby, three bands excised, tryptic digestion, LC-MS/MS; control 3D7

## Glideosome-associated protein 45 (GAP45), endogenous (from UniProt Q8I5I8 1-204)
[1]
  binding: binds

## Glideosome-associated protein with multiple membrane spans 2 (GAPM2) (from UniProt Q8IFN1)
[1]
  binding: binds

## Glideosome-associated protein with multiple membrane spans 3 (GAPM3) (from UniProt Q8IM26)
[1]
  binding: binds

## P. falciparum essential light chain (PfELC), endogenous (from UniProt Q8IJM4 1-134)
[1]
  binding: binds

B1: Putative glideosome-associated protein 40 (GAP40), endogenous (protein, UniProt Q8I3V1 1-456)
chain: MKFEKFNIPEWSDIERYFKDPELLTAEILFVALTLCNVFVMYRLFLDVIPYPIFVTWWQLAQGLLVAYVCGELGREFPKFAYFPKVEINENMLKVLFVPSIFYCLMLVLSNYLLYKTPCIASYPVLVSFTVVFHHLTRFIGCGEEYMPLRWKSIVFLLAAFIIGCFDSKTTGKGVIVWALLYALFSAIFRAGFMQKIMHLVDGKGNTLHNNQHLLGVLILPVLILLSGELSVFVHMPYDITSLHTWQMWGCLITVGTLPFIKNVISNRLVRRTGQGPWRFLEIISIILVFFIGMTYNAPSFKGYLAILCVIIGRSLGAFDVLLNASDYMHAEDERKRKNPRASYAKSRQGTQASKPFLSSADNEEDEESSFSSNDSKSYQGSQDYDDKESVNSSSQQYSVHKGTSHMDSSSNQTSHGVISADEGRGEHSRAATFKSKSKLSRNYSSKQHEMLDSQA
modifications: phosphorylated (labelled with [32P]phosphate in schizonts; sites not given)
[2]
  binding: binds
[1]
  binding: binds
